Results on 12 substances are retold here after publication PMC4605787.

The chains behind the UniProt entries cited, without tags or fusion partners. Residues count along the entry.
UniProt P47197: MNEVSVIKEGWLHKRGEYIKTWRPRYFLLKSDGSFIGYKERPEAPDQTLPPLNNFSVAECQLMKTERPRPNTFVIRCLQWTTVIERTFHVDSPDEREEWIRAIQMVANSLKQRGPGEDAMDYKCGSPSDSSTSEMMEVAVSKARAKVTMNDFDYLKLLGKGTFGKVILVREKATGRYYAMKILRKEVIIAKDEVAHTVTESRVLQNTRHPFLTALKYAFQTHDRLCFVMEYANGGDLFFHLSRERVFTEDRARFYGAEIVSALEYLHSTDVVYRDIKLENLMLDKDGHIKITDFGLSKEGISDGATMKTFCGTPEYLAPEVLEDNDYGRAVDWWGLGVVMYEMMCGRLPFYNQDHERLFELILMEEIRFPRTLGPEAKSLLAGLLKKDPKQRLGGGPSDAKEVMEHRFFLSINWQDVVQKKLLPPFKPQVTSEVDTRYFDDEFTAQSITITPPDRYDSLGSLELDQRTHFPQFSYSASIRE
UniProt P02793: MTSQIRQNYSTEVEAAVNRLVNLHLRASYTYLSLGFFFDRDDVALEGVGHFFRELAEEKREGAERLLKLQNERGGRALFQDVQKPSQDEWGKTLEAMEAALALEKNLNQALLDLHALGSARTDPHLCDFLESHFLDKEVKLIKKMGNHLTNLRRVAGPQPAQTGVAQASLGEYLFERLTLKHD
UniProt Q29RW1: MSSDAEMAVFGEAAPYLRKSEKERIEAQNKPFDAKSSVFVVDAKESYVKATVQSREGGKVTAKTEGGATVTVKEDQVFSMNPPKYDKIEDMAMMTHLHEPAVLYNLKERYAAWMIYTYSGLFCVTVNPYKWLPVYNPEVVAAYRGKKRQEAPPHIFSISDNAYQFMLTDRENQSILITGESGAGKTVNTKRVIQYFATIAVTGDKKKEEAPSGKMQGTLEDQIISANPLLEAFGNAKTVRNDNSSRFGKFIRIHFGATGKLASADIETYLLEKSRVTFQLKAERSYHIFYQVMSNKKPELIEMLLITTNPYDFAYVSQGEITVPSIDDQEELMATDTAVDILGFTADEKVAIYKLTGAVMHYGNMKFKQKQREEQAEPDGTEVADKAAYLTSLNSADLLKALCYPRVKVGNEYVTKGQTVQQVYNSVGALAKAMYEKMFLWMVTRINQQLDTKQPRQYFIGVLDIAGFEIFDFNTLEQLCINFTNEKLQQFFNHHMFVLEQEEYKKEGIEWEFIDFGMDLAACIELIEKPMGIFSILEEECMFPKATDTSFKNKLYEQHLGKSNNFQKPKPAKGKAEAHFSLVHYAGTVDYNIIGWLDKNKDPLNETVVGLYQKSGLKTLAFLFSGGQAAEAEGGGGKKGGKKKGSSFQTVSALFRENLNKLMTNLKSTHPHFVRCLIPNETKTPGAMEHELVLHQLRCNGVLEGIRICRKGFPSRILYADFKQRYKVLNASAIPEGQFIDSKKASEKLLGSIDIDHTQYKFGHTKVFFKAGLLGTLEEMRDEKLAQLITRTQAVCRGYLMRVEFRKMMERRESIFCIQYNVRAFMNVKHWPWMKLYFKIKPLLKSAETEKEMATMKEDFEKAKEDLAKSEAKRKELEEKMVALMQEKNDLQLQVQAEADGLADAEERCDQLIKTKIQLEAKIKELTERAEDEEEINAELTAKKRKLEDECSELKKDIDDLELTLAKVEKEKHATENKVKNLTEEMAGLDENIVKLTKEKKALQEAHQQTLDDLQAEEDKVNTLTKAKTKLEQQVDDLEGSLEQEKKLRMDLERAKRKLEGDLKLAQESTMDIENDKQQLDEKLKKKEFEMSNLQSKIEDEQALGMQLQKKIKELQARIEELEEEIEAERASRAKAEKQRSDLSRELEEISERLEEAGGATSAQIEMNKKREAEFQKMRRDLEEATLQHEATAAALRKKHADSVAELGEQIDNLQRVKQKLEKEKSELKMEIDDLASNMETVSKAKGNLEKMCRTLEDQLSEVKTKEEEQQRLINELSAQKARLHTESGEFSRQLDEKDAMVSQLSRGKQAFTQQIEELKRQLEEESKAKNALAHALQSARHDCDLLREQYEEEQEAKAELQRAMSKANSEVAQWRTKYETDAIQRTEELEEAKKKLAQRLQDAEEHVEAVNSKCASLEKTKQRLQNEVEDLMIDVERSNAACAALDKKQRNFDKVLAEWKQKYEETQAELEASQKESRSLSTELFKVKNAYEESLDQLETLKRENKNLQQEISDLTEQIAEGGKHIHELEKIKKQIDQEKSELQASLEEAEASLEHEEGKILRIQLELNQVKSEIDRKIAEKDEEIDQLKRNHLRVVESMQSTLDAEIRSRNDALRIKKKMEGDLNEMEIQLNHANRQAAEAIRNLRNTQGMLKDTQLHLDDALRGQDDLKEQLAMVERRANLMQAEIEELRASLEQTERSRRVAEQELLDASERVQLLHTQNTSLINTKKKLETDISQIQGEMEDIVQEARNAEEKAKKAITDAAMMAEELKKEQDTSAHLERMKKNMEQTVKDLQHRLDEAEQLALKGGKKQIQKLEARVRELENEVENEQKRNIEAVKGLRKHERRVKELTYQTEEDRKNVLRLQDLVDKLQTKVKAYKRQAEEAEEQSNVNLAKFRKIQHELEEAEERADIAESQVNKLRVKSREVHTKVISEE
UniProt Q6AYH5: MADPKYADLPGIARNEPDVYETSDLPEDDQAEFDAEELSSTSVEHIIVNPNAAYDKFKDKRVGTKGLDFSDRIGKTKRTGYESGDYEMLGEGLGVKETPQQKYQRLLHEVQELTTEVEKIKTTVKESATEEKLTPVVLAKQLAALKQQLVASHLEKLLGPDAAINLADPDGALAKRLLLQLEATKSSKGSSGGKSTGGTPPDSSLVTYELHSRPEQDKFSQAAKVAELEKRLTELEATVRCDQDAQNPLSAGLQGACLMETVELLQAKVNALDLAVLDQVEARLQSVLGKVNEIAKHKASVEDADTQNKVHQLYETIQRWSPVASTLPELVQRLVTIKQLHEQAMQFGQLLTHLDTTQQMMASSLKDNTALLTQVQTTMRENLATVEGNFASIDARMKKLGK
UniProt P04937, residues 25-2477: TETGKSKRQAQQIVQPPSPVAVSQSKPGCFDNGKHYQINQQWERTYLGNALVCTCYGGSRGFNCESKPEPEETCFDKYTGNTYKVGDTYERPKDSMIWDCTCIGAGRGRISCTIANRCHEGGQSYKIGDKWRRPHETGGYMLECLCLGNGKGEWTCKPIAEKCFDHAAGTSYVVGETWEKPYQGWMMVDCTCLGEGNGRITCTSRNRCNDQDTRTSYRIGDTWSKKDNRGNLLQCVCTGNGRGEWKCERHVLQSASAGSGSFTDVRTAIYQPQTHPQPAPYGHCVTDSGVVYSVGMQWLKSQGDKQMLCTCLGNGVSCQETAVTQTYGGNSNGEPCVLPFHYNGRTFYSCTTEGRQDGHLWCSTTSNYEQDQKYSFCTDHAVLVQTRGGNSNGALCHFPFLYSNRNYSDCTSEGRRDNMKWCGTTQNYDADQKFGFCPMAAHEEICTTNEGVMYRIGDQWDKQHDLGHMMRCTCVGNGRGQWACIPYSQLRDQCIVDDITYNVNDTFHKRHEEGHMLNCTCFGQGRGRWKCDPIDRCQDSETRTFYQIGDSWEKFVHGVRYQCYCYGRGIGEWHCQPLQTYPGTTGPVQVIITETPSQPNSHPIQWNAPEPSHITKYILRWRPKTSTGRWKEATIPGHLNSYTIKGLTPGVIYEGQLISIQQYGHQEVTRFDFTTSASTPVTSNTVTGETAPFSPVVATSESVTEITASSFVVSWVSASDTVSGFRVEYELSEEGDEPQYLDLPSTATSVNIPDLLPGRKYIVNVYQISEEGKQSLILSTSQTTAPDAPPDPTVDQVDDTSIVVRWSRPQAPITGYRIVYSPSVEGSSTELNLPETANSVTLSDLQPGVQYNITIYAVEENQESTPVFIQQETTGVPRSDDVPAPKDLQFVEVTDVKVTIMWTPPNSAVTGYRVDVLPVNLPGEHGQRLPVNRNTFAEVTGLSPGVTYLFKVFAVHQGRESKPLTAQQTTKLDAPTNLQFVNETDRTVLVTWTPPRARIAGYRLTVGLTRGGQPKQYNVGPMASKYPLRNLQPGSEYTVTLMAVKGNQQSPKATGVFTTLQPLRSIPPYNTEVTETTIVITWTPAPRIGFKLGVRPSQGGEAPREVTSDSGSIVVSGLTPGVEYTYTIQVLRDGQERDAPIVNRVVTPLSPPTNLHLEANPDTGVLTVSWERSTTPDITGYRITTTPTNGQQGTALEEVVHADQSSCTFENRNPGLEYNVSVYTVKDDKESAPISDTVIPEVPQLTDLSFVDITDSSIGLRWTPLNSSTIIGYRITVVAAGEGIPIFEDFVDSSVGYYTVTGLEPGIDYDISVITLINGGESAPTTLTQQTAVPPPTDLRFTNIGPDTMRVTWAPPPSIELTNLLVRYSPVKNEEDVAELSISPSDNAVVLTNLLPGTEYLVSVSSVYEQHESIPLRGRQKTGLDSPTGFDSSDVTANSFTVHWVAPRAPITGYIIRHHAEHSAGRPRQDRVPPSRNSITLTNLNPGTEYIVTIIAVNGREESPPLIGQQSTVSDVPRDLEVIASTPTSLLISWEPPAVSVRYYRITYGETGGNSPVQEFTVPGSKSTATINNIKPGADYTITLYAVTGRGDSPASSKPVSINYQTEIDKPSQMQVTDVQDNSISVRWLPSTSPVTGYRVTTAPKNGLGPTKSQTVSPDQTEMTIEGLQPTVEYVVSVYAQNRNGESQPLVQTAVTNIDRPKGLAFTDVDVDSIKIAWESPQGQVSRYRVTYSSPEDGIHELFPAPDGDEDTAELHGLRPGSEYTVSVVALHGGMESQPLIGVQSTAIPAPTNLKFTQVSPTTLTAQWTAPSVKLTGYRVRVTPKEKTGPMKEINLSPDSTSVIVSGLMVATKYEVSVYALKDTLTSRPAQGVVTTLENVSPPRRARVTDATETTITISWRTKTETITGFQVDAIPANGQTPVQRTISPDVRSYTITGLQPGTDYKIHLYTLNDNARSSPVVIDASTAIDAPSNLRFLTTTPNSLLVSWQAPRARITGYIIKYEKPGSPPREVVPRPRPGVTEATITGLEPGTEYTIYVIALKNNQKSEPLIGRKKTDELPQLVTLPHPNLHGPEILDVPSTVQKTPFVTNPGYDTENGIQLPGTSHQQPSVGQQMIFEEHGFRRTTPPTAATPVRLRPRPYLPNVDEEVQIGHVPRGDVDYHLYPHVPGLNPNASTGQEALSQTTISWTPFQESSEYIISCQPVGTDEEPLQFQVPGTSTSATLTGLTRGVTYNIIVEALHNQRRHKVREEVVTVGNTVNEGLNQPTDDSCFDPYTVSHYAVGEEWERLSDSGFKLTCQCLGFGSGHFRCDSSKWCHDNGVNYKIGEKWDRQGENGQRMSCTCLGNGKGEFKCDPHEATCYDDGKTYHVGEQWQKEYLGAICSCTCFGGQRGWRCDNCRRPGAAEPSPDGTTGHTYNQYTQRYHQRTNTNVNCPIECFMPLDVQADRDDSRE
UniProt P24368, residues 34-216: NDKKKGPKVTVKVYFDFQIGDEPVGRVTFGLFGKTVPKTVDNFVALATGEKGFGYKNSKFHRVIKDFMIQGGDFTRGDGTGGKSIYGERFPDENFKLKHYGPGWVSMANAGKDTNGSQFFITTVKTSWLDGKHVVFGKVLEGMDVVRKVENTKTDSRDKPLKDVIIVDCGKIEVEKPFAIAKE
UniProt P28480: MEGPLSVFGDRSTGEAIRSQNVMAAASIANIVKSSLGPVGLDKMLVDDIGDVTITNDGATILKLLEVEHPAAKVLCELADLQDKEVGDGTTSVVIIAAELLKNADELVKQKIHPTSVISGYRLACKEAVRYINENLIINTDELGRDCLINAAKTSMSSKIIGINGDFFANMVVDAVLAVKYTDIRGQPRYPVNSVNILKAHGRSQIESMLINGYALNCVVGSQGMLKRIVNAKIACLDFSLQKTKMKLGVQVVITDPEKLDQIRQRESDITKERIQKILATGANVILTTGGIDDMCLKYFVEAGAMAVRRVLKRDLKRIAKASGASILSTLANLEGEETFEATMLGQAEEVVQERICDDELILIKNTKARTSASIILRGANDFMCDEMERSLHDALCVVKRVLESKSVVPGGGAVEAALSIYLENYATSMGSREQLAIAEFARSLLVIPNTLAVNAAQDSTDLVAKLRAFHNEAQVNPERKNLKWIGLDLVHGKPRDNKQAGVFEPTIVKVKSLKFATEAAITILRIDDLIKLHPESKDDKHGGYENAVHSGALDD
UniProt P60901: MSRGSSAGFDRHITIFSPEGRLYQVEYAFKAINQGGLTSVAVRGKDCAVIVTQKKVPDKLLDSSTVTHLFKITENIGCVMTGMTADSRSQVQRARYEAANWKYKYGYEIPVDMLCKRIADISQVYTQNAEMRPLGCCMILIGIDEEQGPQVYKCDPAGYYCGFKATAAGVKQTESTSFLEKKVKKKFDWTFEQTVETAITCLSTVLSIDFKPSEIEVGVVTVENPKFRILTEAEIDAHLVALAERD

No constants are given. Whether binding was seen depends on the method and setting. Binding seen in cells or lysates may run through a third protein. Here binding means that the protein was enriched with, or labelled near, the bait; the list need not be complete.

In the assay the target is Akt2 (rat (endogenous in L6 myoblasts)) (UniProt P47197). The assay can be described thus: affinity purification with mass spectrometry; endogenous Akt2 immunoprecipitated (2 ug rabbit polyclonal anti-Akt2, protein A beads, overnight, 4°C) from 1 mg L6 myoblast lysate precleared with NIgG; cells serum-starved, with or without 100 nM insulin for 15 min; lysis buffer 50 mM HEPES pH 7.6, 150 mM NaCl, 1% Triton; 1D-SDS-PAGE, in-gel trypsin digestion, HPLC-ESI-MS/MS, label-free quantification; hits absent from all NIgG controls.

For “Ferritin light chain 1 (from UniProt P02793 1-183)”, the binding result is “binds”.

With “Eukaryotic translation initiation factor 3 subunit A (from UniProt Q1JU68 1-1354)”, the binding entry was “binds”.

Take Myosin-4 (from UniProt Q29RW1 1-1939): the binding result is given as “binds”.

With “Short/branched chain specific acyl-CoA dehydrogenase, mitochondrial (from UniProt P70584 34-432)”, the binding entry was “binds”.

As for “Tubulin beta-4B chain (from UniProt Q6P9T8 1-445)”, the binding entry is recorded as “binds”.

In the case of “Dynactin subunit 2 (from UniProt Q6AYH5 1-402)”, the binding entry is on record as “binds”.

“Fibronectin (from UniProt P04937 25-2477)”: the binding result is “binds”.

Take “T-complex protein 1 subunit zeta (from UniProt Q3MHS9)”: the binding entry is listed as “binds”.

Turning to “Peptidyl-prolyl cis-trans isomerase B (from UniProt P24368 34-216)”, the binding entry was “binds”.

In the case of “T-complex protein 1 subunit alpha (from UniProt P28480 1-556)”, the binding result is “binds”.

On to “Rho-associated protein kinase 2 (from UniProt Q62868 1-1388)”, for which the binding result was “binds”.

“Proteasome subunit alpha type-6 (from UniProt P60901 1-246)”: the binding entry was “binds”.
